{"source": "patent US20210186915A1", "about": "“PHARMACEUTICAL COMPOSITIONS HAVING HIGH DRUG LOADINGS OF MEDIUM CHAIN TRIGLYCERIDES AND METHODS RELATED THERETO” (Cerecin Inc., priority 2018, published 2021)", "assay": "USP Type II sink dissolution, 2.0 wt % SLS in pH 6.8 buffer", "assay_type": "physicochemical", "conditions": "control oil", "method": "LMPs 1, 2, and 3 were tested in a USP Type II sink dissolution experiment along with caprylic triglyceride (Miglyol 808) oil. 500 mgA of formulation was dosed into a 1000 mL vessel containing 900 mL of 2.0wt % SLS in pH 6.8 buffer. Samples were taken at 30 minutes and 17.5 hours.\nLMP-5, 7, 9, and 11 formulations were tested in a USP Type II sink dissolution experiment sink performance test using methods outlined described in EXAMPLE 3 (Tables 3-A, 3-B). […] The release rate trends as expected, in that adding more carnauba wax to the LMP matrix slows the dissolution. This is because carnauba wax is more hydrophobic than Compritol 888. […] Adding a pore former to the base LMP-11 formulation may allow for increased dissolution performance by enhancing water permeability while maintaining the desirable physical and handling attributes.\nFormulations BREC1690-155, 156, 160, 161, and 162 were tested in a sink dissolution performance test using methods outlined herein at EXAMPLE 3 (Tables 3-A and 3-B). The dissolution rate was increased by the addition of a water soluble component (PVP 17PF, PVP-VA 64 or poloxamer P407). Dissolution was tested on formulations BREC1690-155, 156, 160, 161, and 162. Comparisons of previous Compritol based LMPs (LMP-2 and LMP-5) and BREC1690- 155, 156, and 162 with a dissolution enhancer are shown in FIG. 22.", "note": "At least one read-out could not be matched to a standard name with certainty.", "data": [{"substance": "caprylic triglyceride [Miglyol 808]", "values": [{"measurement": "recovery of centrifuged sample", "value": 30, "unit": "%"}]}]}
